Only a part is listed here, and it is no random draw. At the low end of the ranking, values are background and their order means little.

This assay concerns the target SPI1 (UniProt P17947). Kind of assay: DAPPL (digital affinity profiling via proximity ligation, sequencing). As to conditions: 10 mM Tris-HCl pH 7.5, 50 mM NaCl, 1 mM DTT, 4% glycerol, room temperature, 30 min; GST-TFs on glutathione beads, 16-mer random dsDNA library, 0.1% …; high values mean tight binding; double strand, one strand shown; scale: fold enrichment (6-mer frequency, TF over GST control).
In the case of GGGCTA, the binding signal turned out to be 0.974. The result for CGCTCC reads 1.29; that for TGCCAA, 1.12; that for TTTACT, 1.46. The result for TTCAGC reads 1.18. With TGATGG, the binding signal worked out at 1.28.

The sequence TCTGTC returned a binding signal of 1.1.

The sequence ATCCCT gave a binding signal of 1.16.

GCTATT: the binding signal worked out at 1.3. Under TTTCGA stands 1.35. Sequence GAAATA gave a binding signal of 1.49. TAATGT came in with a binding signal of 1.06. In turn, TCGCTA registered a binding signal of 1.04. For the sequence AATGCC, the binding signal was determined as 1.06. The result for CTAATG reads 1.26; that for ACATAT, 1.2; that for CTCGTG, 0.971.

CTCTAA showed a binding signal of 1.35. As for TTCATC, the binding signal was 1.27. ATAAAC: the binding signal was found to be 1.14.

ATCAGC displayed a binding signal of 0.943. With TCCCAC, the binding signal came to 1.34.

For GAAGTT, the binding signal was 2.02. The result for CGGCTC reads 1.33; that for CGAAAA, 1.1; that for TGGCTA, 1.2.

Take AAGGAA: the binding signal amounted to 1.48.

In the case of ACGAAC, the binding signal is 1.1. Under CTTATC stands 1.2; under GATTCC, 1.14; under AAAGAC, 1.1. Under CTGGGT stands 1.13. Under TTGCCG stands 1.12; under AATCGA, 0.969; under CGTTAA, 1.1.
